Screen size: about 330,000 compounds; about 7,700 (2.3%) were called active. Inconclusive results, whose numbers are uncertain, are shown with a selection of clear calls. Calls come from the whole dose curve; as a rule, active = well fitted inhibition curve with a large enough effect; inconclusive = small, poorly fitted or top-dose-only effect, or effect the other way; inactive = flat fitted curve, though single readings scatter. A potency beside an inconclusive call is a rough fit, not a confirmed value.
assay: qHTS screen for small molecules that inhibit ELG1-dependent DNA repair in human embryonic kidney (HEK293T) cells expressing luciferase-tagged ELG1; details: HEK293T ELG1-luciferase reporter, luminescence, 16 h, DNA damage induced by 5-fluorouridine; activity change, negative = inhibition: at 46.1 µM (top of the series); note: nearly all actives have a fitted effect of over 55% in size
Method in brief: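 Luminescence from the luciferase reporter, measured 30 min after ONE-Glo reagent at room temperature, was the read-out. Beforehand, 2,000 cells per well were exposed for 16 hr at 37 °C to 5-fluorouridine together with compound or vehicle.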
% is set by controls: 0 for no effect and ±100 for the full control effect; potency is the fitted concentration of half-maximal effect.

| Structure (SMILES) | activity change, negative = inhibition | Potency |
| --- | --- | --- |
| COC(=O)c1ccccc1N(Cc1ccccc1)S(C)(=O)=O | inactive: 1.61% |  |
| O=C(Nc1ccc(NC(=O)C2CC2)nc1)c1cccs1 |  | inconclusive: 18.4 µM [activator, partial curve] |
| COC(=O)[C@@]12CCCCN1[C@H](c1ccc(-c3ccc(F)cc3)cc1)[C@H]1C(=O)N(C)C(=O)[C@H]12 |  | inconclusive: 23.1 µM [inhibitor, single point] |
| O=C1OCCN1C(=O)[C@H]1[C@H](c2ccc(Cl)cc2)C(c2ccc(F)cc2)=NN1c1ccccc1 |  | inconclusive: 25.9 µM [inhibitor, single point] |
| CCN(c1ccccc1)S(=O)(=O)c1ccc(C(=O)NCC(=O)Nc2ccc(F)c(F)c2F)cc1 |  | inconclusive: 25.9 µM [inhibitor, single point] |
| Cc1ccc(-n2cccc2/C=C2/C(=N)N3C(=NC2=O)SN=C3S(C)(=O)=O)cc1Cl |  | inconclusive: 14.6 µM [activator, single point] |
| O=C(NCc1ccc2c(c1)OCO2)c1ccc(CS(=O)(=O)Cc2cccc(Cl)c2)o1 |  | inconclusive: 20.6 µM [inhibitor, single point] |
| Cc1cccc(C2=NN(c3ccc(Br)cc3)[C@@H](C(=O)N3CCOC3=O)[C@@H]2C)c1 | inactive: -18.6% |  |
| COc1ccc(C(=O)/C=C/Sc2nc3ccccc3o2)cc1 |  | inconclusive: 29.1 µM [activator, single point] |
| CC1CC(C)CN(c2ccc([N+](=O)[O-])cc2-c2nn[nH]n2)C1 (configuration not stated) | inactive: 1.66% |  |
| COc1cccc(N/N=C/c2cccc(Br)c2O)c1 |  | inconclusive: 18.3 µM [activator, partial curve] |
| CC(C)(C)c1ccc(C(=O)NCCC(=O)N2CCCC2)cc1 |  | inconclusive: 20.6 µM [activator, partial curve] |
| O=C(CSc1nnc(-c2ccccc2Cl)n1Cc1ccco1)Nc1ccc2c(c1)OCCO2 |  | inconclusive: 23.1 µM [inhibitor, single point] |
| COc1ccc(NC(=O)COC(=O)CC2CCCC2)cc1Cl |  | inconclusive: 29.1 µM [activator, single point] |
| C#CCOCCOCCOCCNc1nc(N2CCN(C(=O)CCCCCCCCCCNC(=O)[C@@H](CCC(=O)O)n3cc(CCCCCN)nn3)CC2)nc(N2CCN(C(=O)CCCCCCCCCCNC(=O)[C@@H](CCC(=O)O)n3cc(CCCCCN)nn3)CC2)n1 | inactive: -0.284% |  |
| COC(=O)CC1(c2cccc3ccccc23)C(=O)c2ccccc2C1=O |  | inconclusive: 23.1 µM [activator, single point] |
| O=C(NCCCc1ccccc1)c1cccs1 |  | inconclusive: 11.6 µM [activator, partial curve] |
| COc1ccc(C(=O)N/N=C\c2ccc(OC)c(COc3ccccc3Br)c2)c(OC)c1 |  | active: 8.2 µM |
| CCN1/C(=C\c2ccc3ccccc3[n+]2CC)Sc2cc(C)ccc21 |  | inconclusive: 0.461 µM [inhibitor, full curve] |
| Cc1oc(CC(C)C)c(CN2CCCC2)c1C(=O)O |  | inconclusive: 13 µM [activator, partial curve, poor fit] |
| CCCC(CNC(=O)COC(=O)C1=NNC(=O)CC1)c1ccc(Cl)cc1Cl (configuration not stated) | inactive: -1.01% |  |
| O=C1c2cccnc2C(O)N1Cc1ccc(F)cc1 (configuration not stated) | inactive: 14.5% |  |
| Cc1ccc2oc(C(=O)N(C)Cc3ccc(C)o3)c(C)c2c1 |  | inconclusive: 16.4 µM [activator, single point] |

| Structure (SMILES) | activity change, negative = inhibition | Potency |
| --- | --- | --- |
| CCOC(=O)C1(Cc2cccc(F)c2)CCN(C(=O)COC)CC1 |  | inconclusive: 18.3 µM [activator, partial curve, poor fit] |
| COC(=O)c1ccc(OC(=O)CCS(=O)(=O)c2ccc(C)cc2)cc1 | inactive: 9.96% |  |
| O=C1C(Cl)=C(NC2CCCCC2)C(=O)N1c1ccc(Cl)cc1 |  | inconclusive: 18.4 µM [activator, partial curve] |
| CC1(C)N=C(N)N=C(N)N1c1ccc(OCCCOc2ccccc2)c(Cl)c1 |  | active: 2.59 µM |
| CCC(Sc1nc2cc3c(cc2c(=O)n1Cc1ccco1)OCO3)C(=O)Nc1ccccc1OC (configuration not stated) |  | inconclusive: 0.184 µM [activator, single point] |
| CC1(C)Cc2c(cnn2-c2ccccc2)-c2c1c1ccccc1n2CC(O)CCl (configuration not stated) |  | active: 25.9 µM |
| CCN(CC)c1ccc(/C=N/NC(=O)c2ccc3nc[nH]c3c2)cc1 |  | inconclusive: 18.3 µM [activator, partial curve] |
| Cc1cc(Br)ccc1NC(=O)C1CSC2(C)CCC(=O)N12 (configuration not stated) |  | inconclusive: 0.13 µM [inhibitor, single point] |
| Cc1cccc(OCc2nnc(SC(C)C(=O)O)n2-c2ccccc2)c1 (configuration not stated) |  | inconclusive: 0.1 µM [activator, full curve, poor fit] |
| CC(=O)Nc1ccc(NC(=O)c2ccccc2S(=O)(=O)c2ccc([N+](=O)[O-])cc2)cc1 |  | inconclusive: 16.4 µM [inhibitor, partial curve, poor fit] |
| O=C(Nc1ccc2c(c1)OCCO2)c1ccc(Cl)c([N+](=O)[O-])c1 |  | inconclusive: 2.06 µM [activator, full curve] |
| O=C(Nc1ccc2c(c1)CCC2)C1CCCN(c2ncccn2)C1 (configuration not stated) |  | inconclusive: 25.9 µM [activator, single point] |
| Cc1ccc(NS(=O)(=O)c2ccc(C(=O)NCc3cccnc3)cc2)cc1 |  | inconclusive: 13 µM [activator, partial curve] |
| COc1ccc(C(CNc2nc(-c3cccnc3)nc3ccccc23)N(C)C)cc1 (configuration not stated) | inactive: -24.8% |  |
| Cc1ccc(NC(=O)CN2C(=O)NC3(CCCCCCC3)C2=O)cc1C | inactive: -1.1% |  |
| Cc1ccc(C(=O)N2CCN(S(=O)(=O)c3ccccc3)CC2)s1 | inactive: -7.21% |  |
| CC(=O)Nc1ccc2c(c1)N(S(=O)(=O)c1cccs1)CCC2 |  | inconclusive: 13 µM [activator, single point] |
| Cc1nn(C)c(C)c1/C=N/NC(=O)CCn1nc(C)c([N+](=O)[O-])c1C | inactive: -4.74% |  |
| C=CCn1c(=O)c(C(=O)Nc2ccccc2C)c(O)c2ccccc21 |  | inconclusive: 14.6 µM [activator, partial curve, poor fit] |
| O=C(O)C1CC=CCC1C(=O)N1CCN(c2nc(-c3ccccc3)c3ccccc3n2)CC1 (configuration not stated) | inactive: 20.2% |  |
| COc1ccc(CCC2(C)NC(=O)N(C(C)C(=O)N3c4ccccc4CC3C)C2=O)cc1 (configuration not stated) |  | inconclusive: 29.1 µM [inhibitor, partial curve, poor fit] |
| Nc1cc(N)nc(SCc2ccccc2)n1 |  | inconclusive: 16.4 µM [activator, partial curve] |
| Cc1cc(C(=O)OCC(N)=O)c(C)n1-c1ccccc1 |  | inconclusive: 20.6 µM [activator, single point] |

Gathered by group: the entries above with an NH in an aromatic ring.

| Structure (SMILES) | activity change, negative = inhibition | Potency |
| --- | --- | --- |
| CC1CC(C)CN(c2ccc([N+](=O)[O-])cc2-c2nn[nH]n2)C1 (configuration not stated) | inactive: 1.66% |  |
| CCN(CC)c1ccc(/C=N/NC(=O)c2ccc3nc[nH]c3c2)cc1 |  | inconclusive: 18.3 µM [activator, partial curve] |

(next part)

| Structure (SMILES) | activity change, negative = inhibition | Potency |
| --- | --- | --- |
| CC(C)Cc1nc2sc3c(c2c(=O)n1N)CC(C)(C)OC3 |  | inconclusive: 23.1 µM [inhibitor, single point] |
| Cc1ccc(S(=O)(=O)NCC(=O)OCC(=O)N2CC(C)OC(C)C2)cc1 (configuration not stated) | inactive: 18.1% |  |
| Cc1cccn2c(=O)nc(SCC(=O)N3N=C(c4cccs4)CC3c3ccc(F)cc3)nc12 (configuration not stated) |  | inconclusive: 5.8 µM [inhibitor, partial curve, poor fit] |
| Cn1c(=O)n(C)c2cc(NS(=O)(=O)c3ccc(Br)s3)ccc21 |  | inconclusive: 23.1 µM [activator, partial curve] |
| O=C(O)/C=C/c1ccc(S(=O)(=O)Nc2ccccc2C(=O)Nc2ccc(F)cc2)cc1 | inactive: 11% |  |
| COc1cccc(C2C(C(=O)c3ccc(C)o3)=C(O)C(=O)N2c2cc(C)on2)c1 (configuration not stated) | inactive: 2.32% |  |
| CCN(CC)S(=O)(=O)c1ccc(-c2nnc(SCc3nnc(-c4ccc(C)cc4)o3)n2CC)cc1 |  | inconclusive: 29.1 µM [inhibitor, single point] |
| Cc1snc(SCc2ccc(Cl)cc2)c1C#N | inactive: 12.7% |  |
| O=[N+]([O-])c1nn(-c2ccc(Cl)cc2)n(O)c1=NCc1cccnc1 |  | inconclusive: 29.1 µM [inhibitor, single point] |
| CC(C)(C)NC(=O)c1cc(C(C)(C)C)c(O)c(C(C)(C)C)c1 |  | inconclusive: 13 µM [activator, partial curve] |
| CCCCOc1ccc(C(=O)NCC(=O)N2CCN(C(=O)c3ccco3)CC2)cc1 |  | inconclusive: 0.259 µM [activator, single point] |
| CCC1=NN2C(=N)/C(=C\c3cccn3-c3cccc(Cl)c3)C(=O)N=C2S1 | inactive: -16.2% |  |
| CCN(CC)CCNC(=O)c1ccc(NC(=O)c2ccc(Cl)c(S(=O)(=O)N3CCCCCC3)c2)cc1 |  | inconclusive: 20.6 µM [activator, single point] |
| Cc1ccc(CNC(=O)/C=C/c2ccc(S(=O)(=O)NCc3ccco3)cc2)cc1 |  | inconclusive: 25.9 µM [inhibitor, partial curve, poor fit] |
| O=C(O)c1ccc(N=Nc2c(O)[nH]c3cc(Cl)ccc23)cc1 |  | inconclusive: 0.517 µM [activator, full curve] |
| O=C(Nc1ccccc1F)Nc1cccc2ccc(O)cc12 |  | active: 13 µM |
| CCn1c(=N)c(C(=O)OC)cc2c(=O)n3ccccc3nc21 | inactive: 9.83% |  |
| COc1ccc(-c2ncccc2O)cc1 |  | inconclusive: 20.6 µM [activator, single point] |
| O=C(CCc1ccccc1)Nc1nc2n(n1)C(c1ccc(Cl)cc1)CC(=O)N2 (configuration not stated) |  | inconclusive: 20.6 µM [inhibitor, partial curve, poor fit] |
| CCOc1nc(C)cc(C)c1S(=O)(=O)c1cccc(C)c1 | inactive: -8.78% |  |
| CCC(C(=O)NC1CCCCC1)n1c(SCc2ccccc2F)nc2ccncc21 (configuration not stated) |  | inconclusive: 23.1 µM [activator, partial curve, poor fit] |
